Test results as given in doi:10.1101/2025.07.31.667833.
Results are given in words; binding and its absence hold for the method and conditions named. Some binding calls cover weakened binding; strength is not graded here. Each block holds one binder with its values, some of them ahead of it.

Key:
[1] = biological target: C-terminal coiled-coil (CC) domain of Spef1 (mouse) (UniProt Q99JL1); assay: crystal structure
[2] = biological target: Spef1 V205A/L208A mutant (full-length) (mouse) (UniProt Q99JL1); assay: SEC-MALS
[3] = biological target: Spef1 L208A/L212A mutant (full-length) (mouse) (UniProt Q99JL1); assay: SEC-MALS

binding [1]: binds
B1: C-terminal coiled-coil (CC) domain of Spef1 (domain or fragment, UniProt Q99JL1 170-234)
chain: YNQALQGDPSFVLQIAEKEQELLASQETVQVLQMKVKRLEHLLQLKNVRIDDLSRRLQQAERKQR

binding [2]: no binding (tested: ~1 mg/ml)
B2: Spef1 V205A/L208A mutant (full-length) (protein, UniProt Q99JL1 1-234)
chain: MESSVDEEALHQLYLWVDNIPLSRPKRNLSRDFSDGVLVAELIKFYFPKMVEMHNYVPANSLQQKLSNWGHLNRKVLNKLNFSVPDDVMRKIAQCSPGVVELVLIPLRQRLEERQRRQKLGVGSLQELAPQDSSGYMDMGLPQKVRGEGAPALGEQLREGRPLASRPPGYNQALQGDPSFVLQIAEKEQELLASQETVQVLQMKAKRAEHLLQLKNVRIDDLSRRLQQAERKQR

binding [3]: no binding (tested: ~1 mg/ml)
B3: Spef1 L208A/L212A mutant (full-length) (protein, UniProt Q99JL1 1-234)
chain: MESSVDEEALHQLYLWVDNIPLSRPKRNLSRDFSDGVLVAELIKFYFPKMVEMHNYVPANSLQQKLSNWGHLNRKVLNKLNFSVPDDVMRKIAQCSPGVVELVLIPLRQRLEERQRRQKLGVGSLQELAPQDSSGYMDMGLPQKVRGEGAPALGEQLREGRPLASRPPGYNQALQGDPSFVLQIAEKEQELLASQETVQVLQMKVKRAEHLAQLKNVRIDDLSRRLQQAERKQR
